Results published in paper PMC11547375, “Peptide Dimerization as a Strategy for the Development of Antileishmanial Compounds” (Molecules, 2024).
Positions of bridges follow the written chain, without caps; N, C: chain ends. Residues, ends and D or L forms follow the SMILES beside them. Chains are numbered I, II in the order given.

System: L. mexicana amastigotes
Type: cell-based, Leishmania mexicana
Method: Macrophages were sourced from the peritoneal cavity of Swiss mice using the methodology outlined by de Almeida et al.. Anti-promastigote and anti-amastigote assays of L. mexicana and L. amazonensis and their cytotoxic activity were conducted as previously described. […] Cytotoxicity for the host cells and the protozoan species was compared and expressed as the selectivity index (SI), calculated as the ratio of the CC50 for macrophages to the IC50 for the protozoan species.

## CC[C@H](C)[C@H](NC(=O)CNC(=O)[C@H](CO)NC(=O)[C@H](CC(C)C)NC(=O)[C@@H](N)Cc1ccccc1)C(=O)N[C@H](C(=O)NCC(=O)N[C@@H](CCSC)C(=O)N[C@@H](CC(C)C)C(=O)NCC(=O)N[C@@H](CCCCN)C(=O)N[C@@H](CC(C)C)C(=O)N[C@@H](Cc1ccccc1)C(=O)NCCCC[C@H](NC(=O)[C@H](Cc1ccccc1)NC(=O)[C@H](CC(C)C)NC(=O)[C@H](CCCCN)NC(=O)CNC(=O)[C@H](CC(C)C)NC(=O)[C@H](CCSC)NC(=O)CNC(=O)[C@@H](NC(=O)[C@@H](NC(=O)CNC(=O)[C@H](CO)NC(=O)[C@H](CC(C)C)NC(=O)[C@@H](N)Cc1ccccc1)[C@@H](C)CC)C(C)C)C(N)=O)C(C)C [(TSHa)2K] (I: H-FLSGIVGMLGKLFK-NH2 / II: H-FLSGIVGMLGKLF; amide I:14-II:C; N-terminus assumed)
CC50 macrophages / IC50 L. mexicana amastigote, 24 h
  SI Amastigote 24 h of Treatment: > 1724
CC50 macrophages / IC50 L. mexicana amastigote, 48 h
  SI Amastigote 48 h of Treatment: >2127
L. mexicana amastigote, vs Amp B (SI = 38)
  SI times higher than control drug Amp B: approximately 45 times
L. mexicana, vs TSHa
  times more selective than the monomer: ~9 times
